No constants are given. Whether binding was seen depends on the method and setting. In cells and extracts the contact can be indirect. Some entries that bind do so weakly or less than the wild type. Tags and fused reporters may be left off the sequences shown.
Molecular target: T1, 3 × FLAG-GINS2 (UniProt Q9Y248)
T1 sequence: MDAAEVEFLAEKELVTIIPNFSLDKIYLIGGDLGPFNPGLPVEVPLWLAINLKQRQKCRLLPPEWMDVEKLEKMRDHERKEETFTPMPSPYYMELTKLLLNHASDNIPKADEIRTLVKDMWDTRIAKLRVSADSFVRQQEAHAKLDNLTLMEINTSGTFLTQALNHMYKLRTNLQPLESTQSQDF
Assay: co-IP; Co-IP/immunoblotting in HOS cells; FLAG beads on lysates of cells with 3 × FLAG-GINS2

By UniProt entry, the sequences of proteins in these tests, tags left out.
UniProt P40763: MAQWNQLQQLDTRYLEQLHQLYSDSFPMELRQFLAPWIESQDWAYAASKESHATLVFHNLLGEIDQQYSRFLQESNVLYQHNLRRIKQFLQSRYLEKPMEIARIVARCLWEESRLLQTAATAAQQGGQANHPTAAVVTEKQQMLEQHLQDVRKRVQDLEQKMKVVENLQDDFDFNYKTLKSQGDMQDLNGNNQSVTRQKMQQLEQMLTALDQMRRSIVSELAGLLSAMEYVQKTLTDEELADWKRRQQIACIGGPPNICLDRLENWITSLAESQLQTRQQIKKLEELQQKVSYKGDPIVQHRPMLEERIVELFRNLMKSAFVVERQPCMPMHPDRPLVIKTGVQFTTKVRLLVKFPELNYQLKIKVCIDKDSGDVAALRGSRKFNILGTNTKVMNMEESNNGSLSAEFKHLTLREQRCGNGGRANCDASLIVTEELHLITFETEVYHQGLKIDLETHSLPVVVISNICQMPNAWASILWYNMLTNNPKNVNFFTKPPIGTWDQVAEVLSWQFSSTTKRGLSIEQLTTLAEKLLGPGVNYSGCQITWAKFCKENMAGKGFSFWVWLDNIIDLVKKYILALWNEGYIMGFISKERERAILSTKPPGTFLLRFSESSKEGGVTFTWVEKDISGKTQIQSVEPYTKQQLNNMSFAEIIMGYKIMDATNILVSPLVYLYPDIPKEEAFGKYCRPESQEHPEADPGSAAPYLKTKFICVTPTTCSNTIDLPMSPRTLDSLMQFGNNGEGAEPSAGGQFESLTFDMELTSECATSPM

binding: binds
Substance: STAT3 (from UniProt P40763 1-770)

Reference: paper PMC9981285
